Source: PubChem BioAssay AID1487 (National Center for Advancing Translational Sciences (NCATS), 2009)
The other results are listed elsewhere or left out. Further columns of the screen follow, without active or inactive calls. The list favours compounds with an active or inconclusive main result. Words in brackets tell the shape of the fitted curve; partial curves, single points and poor fits give uncertain potencies.

Test: qHTS Assay for Modulators of Lamin A Splicing
Conditions: HeLa LMNA splicing GFP/RFP minigene ratio, 48 h
In short: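 S3 HeLa cells stably expressing lamin A-EGFP splicing minigene plus DsRed2, 600 cells/well, 48 h compound exposure at 37C. Laser-scanning cytometry; analysed as GFP (500-530 nm)/RFP (575-640 nm) total intensity ratio; 0.5% DMSO vehicle.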

[1] = measured here: GFP splicing reporter channel
[2] = measured here: RFP viability control channel

Compound	AC50 [1]	AC50 [2]
CCn1ccnc1CNC(=O)CC1C(=O)NCCN1Cc1ccccc1F (stereo unspecified)	0.0708 µM [falling, full curve, poor fit]	0.0251 µM [falling, full curve, poor fit]
Cc1nn(C)c(C)c1C1C(C#N)=C(N)OC2=C1C(=O)CCC2 (stereo unspecified)	–	12.6 µM [rising, partial curve, poor fit]
CCOC(=O)c1ccccc1Nc1cc(C)nc2nc(-c3ccco3)nn12	–	1.12 µM [rising, full curve, poor fit]
CC1(C)C/C(=N\NC(=S)Nc2ccccc2F)c2cc(O)ccc2O1	0.00708 µM [rising, full curve]	–
COc1cccc(N2CCN(c3c(C#N)c(C(F)(F)F)nn3C)CC2)c1	–	14.1 µM [rising, single point]
CCn1c(SCC(=O)N=Nc2c(O)[nH]c3ccccc23)nc2ccccc21	–	0.1 µM [rising, full curve, poor fit]
O=C(NCCCN1CCN(c2ccccc2)CC1)c1nnc(Cc2ccc(F)cc2)o1	8.91 µM [falling, partial curve, poor fit]	35.5 µM [falling, partial curve, poor fit]
O=C(N/N=C/c1cc(Br)ccc1O)c1ccccc1Cl	35.5 µM [rising, single point]	35.5 µM [rising, single point]
CC(C)c1ccc(/C=N/NC(=O)CN(c2cccc(Cl)c2Cl)S(C)(=O)=O)cc1	35.5 µM [falling, single point]	35.5 µM [falling, single point]
CCOc1ccc(CC(=O)Nc2ccc(NC(=O)c3ccco3)cc2)cc1OCC	–	11.2 µM [rising, partial curve, poor fit]
COc1cc(C(=O)N2CCN(Cc3ccccc3C(F)(F)F)CC2)cc(OC)c1OC	31.6 µM [rising, single point]	31.6 µM [rising, single point]
O=C(COc1ccccc1F)N1CCN(S(=O)(=O)/C=C/c2ccccc2)CC1	–	12.6 µM [rising, single point]
COC(=O)c1cn(NC(=O)c2cnccn2)c(=O)c2ccccc12	22.4 µM [rising, single point]	22.4 µM [rising, partial curve]
O=C(Nc1cccc(-c2nc3ncccc3o2)c1)c1cc2ccccc2o1	35.5 µM [rising, single point]	22.4 µM [rising, single point]

Complete entries from above. Order of values: AC50 [1]	AC50 [2]
`O=C(NCCCN1CCN(c2ccccc2)CC1)c1nnc(Cc2ccc(F)cc2)o1` is listed as 8.91 µM [falling, partial curve, poor fit]	35.5 µM [falling, partial curve, poor fit]
`COC(=O)c1cn(NC(=O)c2cnccn2)c(=O)c2ccccc12` is listed as 22.4 µM [rising, single point]	22.4 µM [rising, partial curve]
